Reference: PubChem BioAssay AID686943 (Drosophila RNAi Screening Center, 2013)
Test: 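Search across the genome for regulators of signalling from receptor tyrosine kinase to ERK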 (primary screen). Cell system: Drosophila S2R+ haemocyte-like cells expressing YFP-tagged ERK (Rolled). Reagents: long dsRNA against Drosophila genes. Treatment: insulin stimulation versus unstimulated cells; dose and duration not given. Detection: 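Antibody staining for doubly phosphorylated ERK divided by ERK-YFP signal, as plate z-scores, in insulin-treated and untreated cells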. Reading the numbers: replicate 1, z-score of dpERK with insulin and replicate 2, z-score of dpERK with insulin: higher = more active ERK per ERK-YFP after insulin; replicate 1, z-score of dpERK under basal conditions: higher = more basal active ERK per ERK-YFP; replicate 1, z-score of ERK-YFP with insulin: higher = more YFP-tagged ERK signal.
The screen tested about 23,000 reagents; shown is a random part of those with a known target gene and a result. 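Extra replicates exist only for a retested subset of genes; insulin dose and duration not given; both raised and lowered dpERK matter.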 The numbers tell different reagents against one gene apart. A plus sign joins genes that one reagent is predicted to hit. Not stated in the record: the amount of reagent, the time to read-out.

gene	reagent no.	replicate 1, z-score of dpERK with insulin	replicate 2, z-score of dpERK with insulin	replicate 1, z-score of dpERK under basal conditions	replicate 1, z-score of ERK-YFP with insulin
Fitm	1	-0.65	-0.25	-0.78	-1.09
Nup153	1	-1.74	-3.67	-2.07	-9.17
CG33128	1	-0.11	-0.1	-0.1	0.01
Taf6	1	0.36	0.29	-2.13	2.15
CG12911	1	-0.76	0.09	-0.03	0.68
CG6984	1	-0.86	-0.8	2.45	0.87
Ctl1	1	0.02	-0.48	1.38	-0.18
mRpL50	1	0.07	-0.34	-0.76	0.2
CG3650	1	-0.91	-1.03	0.77	0.19
CG31709	1	0.24	0.38	1.02	-0.33
CG18266	1	0.51	-0.28	-0.46	1.66
CG34417	1	-0.59	-0.5	-0.58	0.04
CG34417	2	0.55	0.35		0.08
CG34417	3	-0.1	-1.07	0.22	-0.17
kirre	1	-0.25	-0.25	-0.17	0.21
DCTN1-p150	1	0.63	0.02	2.84	0.03
CG17991	1	-0.2	0.17	-1.23	0.34
mRpL21	1	-0.41	-0.12	-1.38	1.32
Adar	1	0.69	-0.12	0.41	-0.2
CG7840	1	0.45	0.04	0.34	-0.4
Atg101	1	-0.09	0.39	-1.05	0.32
Hmgcr	1	-0.51	-3.52	-2.01	-0.1
CG34144 (retired record)	1	-1.14	-0.07	0.48	0.5
CG34144 (retired record)	2	1.05	0.57	-0.39	-0.67
CG34144 (retired record)	3	-2.11	-0.14	1.04	1.77
CG12177	1	1.6	0.22	-0.7	-1.05
CG12177	2	-0.07	1.67	-1.77	0.26

9 entries from above, set out differently:
| gene | reagent no. | replicate 1, z-score of dpERK with insulin | replicate 2, z-score of dpERK with insulin | replicate 1, z-score of dpERK under basal conditions | replicate 1, z-score of ERK-YFP with insulin |
| --- | --- | --- | --- | --- | --- |
| CG34417 | 3 | -0.1 | -1.07 | 0.22 | -0.17 |
| kirre | 1 | -0.25 | -0.25 | -0.17 | 0.21 |
| DCTN1-p150 | 1 | 0.63 | 0.02 | 2.84 | 0.03 |
| CG17991 | 1 | -0.2 | 0.17 | -1.23 | 0.34 |
| mRpL21 | 1 | -0.41 | -0.12 | -1.38 | 1.32 |
| Adar | 1 | 0.69 | -0.12 | 0.41 | -0.2 |
| CG7840 | 1 | 0.45 | 0.04 | 0.34 | -0.4 |
| Atg101 | 1 | -0.09 | 0.39 | -1.05 | 0.32 |
| Hmgcr | 1 | -0.51 | -3.52 | -2.01 | -0.1 |

Next entries:
gene	reagent no.	replicate 1, z-score of dpERK with insulin	replicate 2, z-score of dpERK with insulin	replicate 1, z-score of dpERK under basal conditions	replicate 1, z-score of ERK-YFP with insulin
CG2162	1	-1.3	-2.36	-2.2	-0.25
CG7542	1	-0.1	0.15	0.43	-0.41
CG6333	1	1.08	0.29	-0.15	-0.01
nxf4	1	0.34	-1.05	1.9	-0.25
CG42342	1	0.88	0.67	0.81	0.02
CG42342	2	-2.1	-5.88	-3.13	-6.07
CG42342	3	1.71	0.16	-2.26	-0.6
CG42342	4	0.9	0.17	-0.65	-0.18
CG42342	5	1.11	0.06	1.18	0.38
CG42342	6	-0.19	0.24	0.02	1.03
CG42342	7	0.24	1.49	2.27	0.03
7SLRNA:CR42652 + 7SLRNA:CR32864	1	1.7	0.41	0.31	0.38
CG10616	1	0.52	0.17	0.3	0.02
CG8945	1	-0.33	-0.8	-0.4	0.03
CG8945	2	-0.45	-0.06	0.41	1.06
CG32547	1	-0.89	0.77	-0.68	0.69
CG32547	2	1.85	1.13	-0.1	0.16
CG32547	3	0.17	-0.13	-0.52	0.44
CG32547	4	-2.49	-0.33	0.68	-0.37
CG46301	1	0.1	-0.3	0.64	0.03
CG34444	1	-0.42	-0.1	-0.6	0.9
haf	1	-0.67	-0.4	0.75	-0.76
Tbce	1	-0.92	0.18	1.43	1.61
eas	1	0.19	-0.66	0.09	0.03
ana2	1	-0.42	0.32	1.13	0.31
CG14636	1	-0.47	0.1	-1.32	-0.08
CG7049	1	0.69	0.73	0.04	-0.56
CG42542	1	0.38	-0.16	0.06	1.13
CG42542	2	4.72	1.14	1.17	-1.2
Vha36-2	1	-0.14	0.08	-0.03	0.31
